For at least one compound, name, drawing or mass did not settle the structure. Some compounds share one wording; it may come from a single statement.
Tests used:
[1] = system: human NHIK 3025/MEM cervix carcinoma cells; assay: Rate of protein synthesis ([3H]-valine incorporation) in NHIK 3025 cells; type: cell-based; conditions: NHIK 3025/MEM cells, 1 hour treatment with [3H]-valine, compared to prior art compound 15
From the text: Human cells of the established line NHIK 3025, originating from a cervical carcinoma in situ (Nordbye, K. and Oftebro, R., Exp. Cell Res., 58: 458, (1969)), (Oftebro, R. and Nordbye, K., Exp. Cell Res., 58: 459-460, (1969)) were cultivated in medium E2a (Puck et al., J. Exp. Med., 106: 145-165, (1957)) supplemented with 20% human (prepared at the laboratory) and 10% horse serum (Grand Island Biological Co.).
(§1) The cells are routinely grown as monolayers in tissue culture flasks. The cells were kept in continuous exponential growth by frequent reculturing, i.e. every second or third day.
(§2) During reculturing as well as during experiments the cells were kept in a walk-in incubator at 37°C.
(§3) The rate of protein synthesis was calculated as described previously (Rønning et al., J. Cell Physiol., 107: 47-57, (1981)). Briefly, cellular protein was labeled to saturation during a 2-day preincubation with [¹⁴C]-valine of constant specific radioactivity (0.5 Ci/mol) prior to the experiment. This was achieved by using a high concentration of valine so that the dilution of [¹⁴C]- valine by intracellular valine and by proteolytically generated valine will be negligible (Rønning et al., Exp. Cell Res., 123: 63-72, (1979)), thus keeping the specific radioactivity at a constant level. The rate of protein synthesis was calculated from the incorporation of [³H]-valine of constant specific activity. The incorporated measurements were related to the total of [¹⁴C]-radioactivity in protein at the beginning of the respective measurement periods and expressed as the percentage per hr (Rønning et al., J. Cell. Physiol., 107: 47-57, (1981)).
(§4) In Figure 1 the rate of protein synthesis (as % of control rate) is shown in relation to the concentration of imine used in the treatment of human NHIK 3025/MEM cervix carcinoma cells cultivated in vitro. The treatment period was for 1 hour during which the cell culture medium contained [³H]-valine in addition to the test compound.
as §4, with “Figure 2” for “Figure 1”

[2] = system: human pancreatic carcinoma cell line PANC-1; assay: Rate of protein synthesis and cell inactivation ([14C]-radioactivity) in PANC-1 cells; type: cell-based; conditions: for protein synthesis inhibition: concentrations of 2mM and less (non-toxic doses)
Protocol: PANC-1 cells were purchased from the American Type Culture Collection (ATCC) in 1990. These cells were derived from a human adenocarcinoma of ductal origin (Lieber et al, Int. J. Cancer 15, (1975) 741-747).
as §1, §2, §3
In Figures 6a) and b) the human pancreatic carcinoma cell line PANC-1, cultivated in the medium MEM (with new born calf serum), was used .
In Figures 7a) and b) the human pancreatic carcinoma cell line PANC-1, cultivated in the medium E2a (with human and horse serum), was used .

[2H]C(=NCCCCCCCCCCC(=O)O)c1ccccc1 [Compound 1, 11-(Benzylidene-d1-Amino) -Undecanoic Acid]
rate of protein synthesis (as % of control rate) ([1]; Figure 1): inhibited to a greater degree

[2H]C(=NCCCCCC(=O)O)c1ccccc1 [Compound 2, 6-(Benzylidene-d1-Amino) -Hexanoic Acid]
rate of protein synthesis (as % of control rate) ([1]; Figure 1): inhibited to a greater degree

[2H]C(=NCCOCCO)c1ccccc1 [Compound 5, 5-(Benzylidene-d1-Amino)-3-Oxa-Pentan-1-ol]
rate of protein synthesis (as % of control rate) ([1]; Figure 2): inhibited to a greater degree

[2H]C(=NCCCCO)c1ccccc1 [Compound 6, 4-(Benzylidene-d1-Amino) -Butan-1-ol]
rate of protein synthesis (as % of control rate) ([1]; Figure 2): inhibited to a greater degree

[2H]C(=NCCCN(C)C)c1ccccc1 [Compound 14, 1-(Benzylidene-d1-Amino)-3-(Dimethyl-amino)-Propane]
protein synthesis inhibition ([2]; Figure 6b, PANC-1 in medium MEM): strong protein synthesis inhibition
protein synthesis inhibition ([2]; Figure 7b, PANC-1 in medium E2a): strong protein synthesis inhibition
protein synthesis inhibiting activity ([2]; Figures 6a/6b, PANC-1 in medium MEM (with new born calf serum)): clear protein synthesis inhibiting effect
efficiency as protein synthesis inhibitor ([2]; Figures 6 and 7, PANC-1, irrespective of the medium used, compared to compound 15): far more efficient protein synthesis inhibitor than the prior art compound 15
protein synthesis inhibiting activity ([2]; Figures 7a/7b, PANC-1 in medium E2a (with human and horse serum)): clear protein synthesis inhibiting effect
